Reference: PubChem BioAssay AID1159584 (Peter MacCallum Cancer Centre, 2016)
This is an unselected part of about 18,000 reagents tested. Not all columns of the deposit are shown. Not stated in the record: the amount of reagent, the time to read-out.

- Screen: 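Genes whose loss is lethal only together with E-cadherin loss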 (primary screen)
- Cells: human MCF10A breast epithelial cells, parental and CDH1-null
- Reagent: siRNA against human genes
- Measured: 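ATP luminescence (CellTiter-Glo) viability per line relative to mean mock wells over all plates, and the ratio of CDH1-null to parental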
- Scale: CDH1-null / parental viability ratio: higher = CDH1-null cells survive relatively better than parental

FREM1 (GeneID 158326)
- CDH1-null / parental viability ratio: 0.82

AK1 (GeneID 203)
- CDH1-null / parental viability ratio: 0.86

TAMALIN (GeneID 160622)
- CDH1-null / parental viability ratio: 1.12

NR4A1 (GeneID 3164)
- CDH1-null / parental viability ratio: 0.79

SENP6 (GeneID 26054)
- CDH1-null / parental viability ratio: 0.94

CPLX2 (GeneID 10814)
- CDH1-null / parental viability ratio: 0.96

CD1B (GeneID 910)
- CDH1-null / parental viability ratio: 0.87

DEFB130A (GeneID 245940)
- CDH1-null / parental viability ratio: 1.13

SNX5 (GeneID 27131)
- CDH1-null / parental viability ratio: 0.95

COMMD2 (GeneID 51122)
- CDH1-null / parental viability ratio: 0.83

MIR99AHG (GeneID 388815)
- CDH1-null / parental viability ratio: 0.98

MXD1 (GeneID 4084)
- CDH1-null / parental viability ratio: 0.94

ACVR2B (GeneID 93)
- CDH1-null / parental viability ratio: 0.96

RASGRP2 (GeneID 10235)
- CDH1-null / parental viability ratio: 0.72

SUGCT (GeneID 79783)
- CDH1-null / parental viability ratio: 1.07

H2AC25 (GeneID 92815)
- CDH1-null / parental viability ratio: 1

SPATA25 (GeneID 128497)
- CDH1-null / parental viability ratio: 1.25

IRF7 (GeneID 3665)
- CDH1-null / parental viability ratio: 0.87

UTP14A (GeneID 10813)
- CDH1-null / parental viability ratio: 1.1

COPA (GeneID 1314)
- CDH1-null / parental viability ratio: 1.15

SLC11A2 (GeneID 4891)
- CDH1-null / parental viability ratio: 1.18

FHL5 (GeneID 9457)
- CDH1-null / parental viability ratio: 1.05

CXCL3 (GeneID 2921)
- CDH1-null / parental viability ratio: 1.09

LINC02897 (GeneID 388759)
- CDH1-null / parental viability ratio: 0.95

OR51F2 (GeneID 119694)
- CDH1-null / parental viability ratio: 0.85

SLC22A10 (GeneID 387775)
- CDH1-null / parental viability ratio: 0.94

RPL23A (GeneID 6147)
- CDH1-null / parental viability ratio: 1.03

SCD5 (GeneID 79966)
- CDH1-null / parental viability ratio: 1.13

L3HYPDH (GeneID 112849)
- CDH1-null / parental viability ratio: 1.03

ERCC2 (GeneID 2068)
- CDH1-null / parental viability ratio: 1

PGPEP1 (GeneID 54858)
- CDH1-null / parental viability ratio: 1.05

PCDHB1 (GeneID 29930)
- CDH1-null / parental viability ratio: 0.85

ERMARD (GeneID 55780)
- CDH1-null / parental viability ratio: 1

CCT8 (GeneID 10694)
- CDH1-null / parental viability ratio: 0.87

OR11A1 (GeneID 26531)
- CDH1-null / parental viability ratio: 1.12

Copied from the entries so far (2 entries):
RASGRP2 (GeneID 10235)
- CDH1-null / parental viability ratio: 0.72

SUGCT (GeneID 79783)
- CDH1-null / parental viability ratio: 1.07
